{"source": "PubChem BioAssay AID504444", "about": "(National Center for Advancing Translational Sciences (NCATS), 2011)", "note": "Several values for one entry are separate records, joined by “and”; a condition that tells them apart may be missing. Identical values can stand only once. In all, about 360,000 compounds went through this assay and about 7,500 (2.1%) were called active. The inconclusive results got no clear call from the source; some entries with a clear call stand among them for comparison. The call rests on the fitted dose curve; in most records, active means well fitted inhibition curve with a large enough effect; inconclusive means small, poorly fitted or top-dose-only effect, or effect the other way; inactive means flat fitted curve, though single readings scatter. Where the call is inconclusive, the potency comes from a doubtful curve fit. On the % scale 0 is the no-effect control and ±100 the full control effect; potency means the concentration at half of the fitted maximal effect.", "data": [{"assay": "Nrf2 qHTS screen for inhibitors; further: nearly all actives have a fitted effect of over 60% in size", "settings": "A549 ARE-Fluc reporter, luciferase luminescence, 18-24 h; activity change, negative = inhibition: at 46 µM (top of the series)", "outline": "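Concentration-response testing used A549 ARE_Fluc cells at 5000 cells/well. Following an 18-24 h compound incubation, viability was read by fluorescence (Ex 405/Em 525) and luciferase output by luminescence.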", "values": [{"smiles": "Cc1cc(NC(=S)NC(=O)/C=C/c2ccc(S(=O)(=O)N3CCOCC3)cc2)ccc1Br", "Potency": "inconclusive: 29.1 µM [activator, single point]"}, {"smiles": "Cc1ccc(Nc2nc(=O)c3cccnc3s2)cc1", "Potency": "inconclusive: 5.8 µM [activator, full curve]"}, {"smiles": "O=C(CN1C(=O)COc2ccccc21)NCCN1CCOCC1", "Potency": "inconclusive: 6.51 µM [falling, single point]"}, {"smiles": "CS(=O)(=O)c1ccc(C(=O)Nc2cc(S(C)(=O)=O)ccc2Cl)cc1", "Potency": "inactive"}, {"smiles": "COC(=O)c1c(C)oc2ccc(N(C(C)=O)S(=O)(=O)c3ccccc3)cc12", "Potency": "inconclusive: 18.4 µM [falling, partial curve, poor fit]"}, {"smiles": "COc1cccc(N2CCN(c3ncnc4c3nc3n4CCCCC3)CC2)c1", "Potency": "inconclusive: 20.6 µM [falling, single point]"}, {"smiles": "CCOC(=O)C1(Cc2cccc(OC)c2)CCCN(C(=O)c2cc(C)on2)C1", "note": "(stereo unspecified)", "Potency": "inconclusive: 11.6 µM [activator, partial curve, poor fit]"}, {"smiles": "O=S(=O)(c1ccc(Cl)cc1)c1snnc1-c1ccccc1", "Potency": "inactive"}, {"smiles": "Cc1ccc(-n2c3nc(=O)[nH]c(=O)c-3cc3c(C)nn(-c4ccccc4)c32)cc1Cl", "Potency": "inactive"}, {"smiles": "O=C(NC1CCCCC1)c1ccc(Cn2c(SCc3ccc(F)cc3)nc3cccnc32)cc1", "Potency": "inconclusive: 29.1 µM [activator, single point]"}, {"smiles": "Cc1cc(C(=O)N2CCCC(N3CCN(c4cccc(C(F)(F)F)c4)CC3)C2)c(C)o1", "note": "(stereo unspecified)", "Potency": "inconclusive: 32.6 µM [falling, single point]"}, {"smiles": "Cc1ccc2c(c1)-c1onc(C(=O)N3CCN(c4ccc(Cl)cc4)CC3)c1CO2", "Potency": "inconclusive: 9.2 µM [falling, partial curve]"}, {"smiles": "CCC(=O)N1c2ccccc2-c2nnc(SC)nc2OC1c1ccc(OC)c(OC)c1", "note": "(stereo unspecified)", "Potency": "inactive"}, {"smiles": "CCC1CCC2(CC1)NC(=O)N(CC(=O)c1c(C)[nH]c3ccccc13)C2=O", "note": "(stereo unspecified)", "Potency": "inconclusive: 29.1 µM [falling, single point]"}, {"smiles": "Fc1cccc(NC(=S)Nc2ccc(Br)cc2)c1", "Potency": "inconclusive: 20.6 µM [falling, single point]"}, {"smiles": "COc1cc(NS(=O)(=O)c2ccc(NC(C)=O)cc2)cc(OC)c1", "Potency": "active: 5.8 µM"}, {"smiles": "O=C(CSc1nnc(CNC(=O)c2ccco2)o1)Nc1cccc(C(F)(F)F)c1", "Potency": "inconclusive: 23.1 µM [activator, single point]"}, {"smiles": "CCCN(CCC)CC(O)Cn1cc(/C=C/C(=O)c2ccc(C)cc2)c2ccccc21", "note": "(stereo unspecified)", "Potency": "inconclusive: 25.9 µM [activator, single point]"}, {"smiles": "Cc1ccc(-n2ncc(C(=O)NC3CC3)c2C2CCN(C(=O)OC(C)(C)C)CC2)c(C)c1", "Potency": "inconclusive: 16.4 µM [falling, single point]"}, {"smiles": "CC1CN(C2CCN(S(=O)(=O)c3ccccc3)CC2)CC(C)O1", "note": "(stereo unspecified)", "Potency": "inactive"}, {"smiles": "CCOCC(=O)Nc1ccc(Br)c(C)c1", "Potency": "inconclusive: 8.2 µM [activator, partial curve]"}, {"smiles": "CCc1nc2c(sc3nc4c(cc32)COC(C)(C)C4)c(=O)n1CCN(CC)CC", "Potency": "inconclusive: 25.9 µM [activator, partial curve, poor fit]"}, {"smiles": "CC(=O)OC1CCC2C3CCC4=C(CC(F)C(=O)C4)C3CCC12C", "note": "(stereo unspecified)", "Potency": "inactive"}, {"smiles": "COc1ccc(-c2nnc(SCc3nnc(-c4ccccc4)o3)n2-c2ccccc2)cc1", "Potency": "inconclusive: 0.731 µM [falling, full curve, poor fit]"}, {"smiles": "O=C1CN(C(=O)COC(=O)/C=C/c2ccc(OC(F)F)cc2)c2ccccc2N1", "Potency": "inconclusive: 32.6 µM [falling, partial curve, poor fit]"}, {"smiles": "O=C(Nc1nc(-c2cccnc2)cs1)c1ccc([N+](=O)[O-])cc1", "Potency": "inactive"}, {"smiles": "Cc1nnsc1NC(=O)OCc1ccc(C(C)(C)C)cc1", "Potency": "active: 10.3 µM"}, {"smiles": "CC(C(=O)NCc1ccc(Cl)cc1)n1ccc2cc(S(=O)(=O)N3CCCCCC3)ccc21", "note": "(stereo unspecified)", "Potency": "inconclusive: 13 µM [falling, partial curve, poor fit]"}, {"smiles": "C=Cc1ccc(Cn2c(C(=O)O)c(CNC3CCCC3)c3ccc(C)cc32)cc1", "Potency": "inactive"}, {"smiles": "O=C(NCCCc1ccccc1)c1ccccc1O", "Potency": "inconclusive: 29.1 µM [activator, single point]"}, {"smiles": "CN(C)S(=O)(=O)c1ccc2c(c1)N(CC(=O)Nc1ccc(OC(F)(F)F)cc1)C(=O)CS2", "Potency": "inconclusive: 25.9 µM [falling, partial curve, poor fit]"}, {"smiles": "O=C(Nc1ccc(F)cc1)Nc1nnc(-c2ccncc2)s1", "Potency": "inconclusive: 14.6 µM [falling, partial curve]"}, {"smiles": "Cc1sc2ncnc(SCC(=O)c3cccs3)c2c1C", "Potency": "inconclusive: 29.1 µM [falling, single point]"}, {"smiles": "Cc1nnsc1C(=O)N1CCCC(N2CCN(c3cccc(C(F)(F)F)c3)CC2)C1", "note": "(stereo unspecified)", "Potency": "inconclusive: 29.1 µM [falling, partial curve, poor fit]"}, {"smiles": "CCOc1ccc2oc(C(=O)OCC(=O)NCC3CCCO3)c(C)c2c1", "note": "(stereo unspecified)", "Potency": "inconclusive: 29.1 µM [activator, single point]"}, {"smiles": "Cc1ccc(S(=O)(=O)Cc2cn3cccnc3n2)cc1", "Potency": "inactive"}, {"smiles": "Cc1[nH]c2ccccc2c1/C=N/NC(=O)Cc1cccs1", "Potency": "inactive"}, {"smiles": "CCO[C@H]1OC(C(=O)NCc2ccccc2)=C[C@@H](c2ccc(Br)cc2)[C@@H]1CCCO", "Potency": "inactive"}, {"smiles": "Cc1ccc(NC(=O)Nc2nnc(-c3ccccc3)o2)cc1", "Potency": "inactive"}, {"smiles": "CC(C)(C)c1cc(C(=O)N/N=C/c2ccc(F)cc2)n(-c2ccccc2)n1", "Potency": "inconclusive: 25.9 µM [falling, single point]"}, {"smiles": "COc1ccc(S(=O)(=O)n2ccc(-c3ccc4c(c3)CCC(C)(C)O4)n2)cc1", "Potency": "active: 13 µM"}, {"smiles": "Cc1nc2cc(-c3ccccc3)nn2c(C)c1CCC(=O)NCc1ccco1", "Potency": "inconclusive: 4.11 µM [falling, partial curve]"}, {"smiles": "O=c1[nH]c2cccnc2c2ccsc12", "Potency": "inconclusive: 2.06 µM [falling, full curve]"}, {"smiles": "COc1cccc(NC(=O)CN2CCN(c3nc(-c4cccc(OC)c4)cs3)CC2)c1", "Potency": "inconclusive: 29.1 µM [falling, single point]"}, {"smiles": "CCCCCOc1ccc(C(=O)NCC2(c3ccccc3)CCOCC2)cc1", "Potency": "inconclusive: 29.1 µM [falling, single point]"}, {"smiles": "O=C1CCc2cc([S+](=O)([O-])NC3CCOCC3)ccc2N1", "Potency": "inactive"}, {"smiles": "CCn1c(=O)c([N+](=O)[O-])c(N2CCN(Cc3ccc4c(c3)OCO4)CC2)c2ccccc21", "Potency": "inconclusive: 23.1 µM [falling, single point]"}, {"smiles": "O=C(NCc1ccccc1Cl)C1CCCN(S(=O)(=O)c2cccc3nsnc23)C1", "note": "(stereo unspecified)", "Potency": "inconclusive: 14.6 µM [falling, partial curve, poor fit]"}, {"smiles": "Cc1ccc(-c2csc3ncnc(SCC(=O)NCc4ccc5c(c4)OCO5)c23)cc1", "Potency": "inconclusive: 23.1 µM [falling, single point]"}, {"smiles": "COc1ccc2nc(C)cc(SCC(=O)N/N=C/c3cccc4ccccc34)c2c1", "Potency": "active: 16.4 µM"}, {"smiles": "Oc1[nH]c2ccccc2c1N=Nc1nc(Nc2ccccc2)nc(N2CCOCC2)n1", "Potency": "inconclusive: 11.6 µM [falling, single point]"}, {"smiles": "CCC(=O)N1CCc2cc(Br)cc(S(=O)(=O)N3CCN(c4ccc(C)cc4)C(C)C3)c21", "note": "(stereo unspecified)", "activity change, negative = inhibition": "inactive: 9.29% [at 9.27 µM]"}, {"smiles": "NS(=O)(=O)c1ccc(NC(=S)N2CCc3ccccc32)cc1", "Potency": "inconclusive: 18.4 µM [falling, single point]"}, {"smiles": "O=C1c2[nH]nc(-c3ccccc3O)c2C(c2cccc(O)c2)N1Cc1ccncc1", "note": "(stereo unspecified)", "Potency": "inactive"}, {"smiles": "CCNc1nc(NCC)nc(-n2cc(C(=O)c3cc(Cl)ccc3O)cn2)n1", "Potency": "inactive"}, {"smiles": "CCOc1ccc(Cn2nnc(C(=O)NCCc3ccccc3)c2N)cc1", "Potency": "inconclusive: 25.9 µM [activator, partial curve]"}, {"smiles": "CC(CN1CCCC1)OC(=O)c1ccc(F)cc1", "note": "(stereo unspecified)", "Potency": "inconclusive: 6.51 µM [falling, single point]"}, {"smiles": "Cc1ccc2c(c1)N(S(=O)(=O)c1cc(-c3onc(C)c3C)ccc1C)CCO2", "Potency": "active: 20.6 µM and active: 8.2 µM"}, {"smiles": "O=C(CN1C(=O)COc2ccc(S(=O)(=O)N3CCCC3)cc21)N1CCN(c2ccc(Cl)cc2)CC1", "Potency": "inconclusive: 18.4 µM [falling, partial curve, poor fit]"}, {"smiles": "O=C(CNc1cccc([N+](=O)[O-])c1)N/N=C/c1ccc([N+](=O)[O-])o1", "Potency": "inactive"}, {"smiles": "COc1ccccc1NC(=O)C1CCN(S(=O)(=O)c2ccc3c(c2)CC(C)N3C(C)=O)CC1", "note": "(stereo unspecified)", "Potency": "inconclusive: 18.4 µM [falling, partial curve, poor fit]"}, {"smiles": "O=C(c1ccc2oc(CCc3ccccc3)nc2c1)N1CCC(O)CC1", "Potency": "inconclusive: 2.59 µM [activator, partial curve, poor fit]"}, {"smiles": "COc1cccc(-c2nc(CS(=O)(=O)CC(=O)NC3CCCCCC3)c(C)o2)c1", "Potency": "inconclusive: 29.1 µM [falling, single point]"}, {"smiles": "CCCSc1ncc(Cl)c(C(=O)NCc2ccc(OC)cc2)n1", "Potency": "inconclusive: 20.6 µM [falling, single point]"}, {"smiles": "c1ccc(Cn2cc(CSc3ccccc3)nn2)cc1", "Potency": "inconclusive: 18.4 µM [activator, partial curve]"}, {"smiles": "CCN1C(=O)[C@H]2[C@@H](c3ccc(C)cc3)N3C(=O)N(c4cccc(Cl)c4)C(=O)[C@@]3(CC(C)C)[C@H]2C1=O", "Potency": "inconclusive: 9.2 µM [falling, partial curve, poor fit]"}]}]}
